Patent publication US20250282732A1, “NOVEL ESTERS OF 1,2,3,4,4a,5,6,7,8,9,10,10a-DODECAHYDROBENZO[G]QUINOLIN-6-OL COMPOUNDS AND USES THEREOF” (INTEGRATIVE RESEARCH LABORATORIES SWEDEN AB, priority 2022, published 2025)
Some results were stated once for a whole list of compounds, not compound by compound.

Test system: non-pre-treated Sprague-Dawley rats
Experiment: Spontaneous locomotor activity (distance travelled)
Type: in vivo, rat
Conditions: 0.3 μmol/kg; recording session 180 min
Experimental: Behavioral activity was measured using eight Digiscan activity monitors (RXYZM (16) TAO, Omnitech Electronics, Columbus, OH, USA), connected to an Omnitech Digiscan analyzer and an Apple Macintosh computer equipped with a digital interface board (NB DIO-24, National Instruments, USA). Each activity monitor consisted of a quadratic metal frame (W×L=40 cm×40 cm) equipped with photo beam sensors. During measurements of behavioral activity, a rat was put in a transparent acrylic cage (W×L×H, 40×40×30 cm) which in turn was placed in the activity monitor. Each activity monitor was equipped with three rows of infrared photo beam sensors, each row consisting of 16 sensors. […] Behavioral data from each activity monitor, representing the position (horizontal center of gravity and vertical activity) of the animal at each time, were recorded at a sampling frequency of 25 Hz and collected using a custom written LABView™ application. The data from each recording session were stored and analyzed with respect to distance traveled. […]
(§1) The animals were placed in the motility meters immediately after administration and locomotor activity was recorded for 180 minutes. […]
as §1

Compound: CCCN1CCC[C@@H]2CC3=C(CCCC3=O)C[C@H]21 [Preparation 4A, (4aR,10aR)-1-propyl-1,2,3,4,4a,5,8,9,10,10a-decahydrobenzo[g]quinolin-6(7H)-one, reference compound]
- desired effect (hyperactivity) lasting for: at least 180 min
